From publication PMC12040169 (PLOS Biology, 2025)
The list shows a part of the results.

Each compound was assayed on T1, CTL2-GFP (C. trachomatis L2/434/Bu, GFP-expressing). Details: bulk GFP, single well; 28.5 h, 10 µM; inhibitor.
T1 construct: L2/434/Bu, GFP-expressing
Design: species or system HeLa; Intracellular C. trachomatis growth in HeLa cells, bulk GFP fluorescence relative to DMSO

| SMILES | % of control remaining [%] |
| --- | --- |
| Cc1n[nH]cc1C(=O)NC[C@H]1CC[C@H](c2cc(C(=O)NC(C)C)c3ccccc3n2)CC1 [CBK285862] | 127.388 |
| CC(=O)N1CCC(C(=O)NC(=O)NCCOc2ccccc2Cl)CC1 [CBK034842] | 104.563 |
| COc1ccnc(N2CCN(Cc3nnnn3C3CC3)CC2)n1 [CBK305808] | 113.857 |
| Cc1ccc2nc3c(cc2c1)CN(Cc1ccco1)C(=O)CO3 [CBK283594] | 123.317 |
| Cn1cncc1CN1CCNC(=O)C1c1ccccc1C(F)(F)F (centres unmarked) [CBK305495] | 111.797 |
| CCOc1ccc(CN(C)C(C)C(=O)Nc2cc(C)no2)cc1 (centres unmarked) [CBK305607] | 137.385 |
| CN(CC(F)(F)F)C(=O)CCc1nc(-c2cccs2)no1 [CBK282215] | 147.602 |
| Cc1cc(OCC(=O)Nc2ccc(S(=O)(=O)Nc3onc(C)c3C)cc2)cc(C)c1Cl [CBK263491] | 13.7602 |
| CC(C)[C@@H](N)Cn1nnc2ccccc21 [CBK284323] | 107.091 |
| O=C(c1cc[nH]c1)N1CCC2(CCN(Cc3ccccc3)CC2)C1 [CBK136756] | 115.711 |
| O=C(O)CN1CCN(c2ncnc3sc4c(c23)CCCC4)CC1 [CBK286836] | 120.857 |
| Cc1nc2ccc(C(=O)N(C)CCN3CCCCC3)cc2s1 [CBK281919] | 124.505 |
| CS(=O)(=O)Nc1ccc2cc(-c3cccc(C(F)(F)F)c3)cnc2n1 [CBK085671] | 116.333 |
| Cc1ccc(N2C(=O)c3ccc(C(=O)OCc4ccc([N+](=O)[O-])cc4)cc3C2=O)cc1Cl [CBK265730] | 165.827 |
| Cc1ccc2[nH]c(SCC(=O)Nc3cccc(NC(=O)C45CC6CC(CC(C6)C4)C5)c3)nc2c1 [CBK265679] | 98.5355 |
| Cc1ccc(C(=O)N2CN(C(=O)CNC(C)(C)C)CC2(C)C)cc1 [CBK089575C] | 132.643 |
| Cc1noc(C)c1C(=O)N1CCOCC1 [CBK057765] | 129.864 |
| O=C(NCc1nnc2ccccn12)c1ccccc1 [CBK288064] | 116.038 |
| O=c1[nH]c2ncc(-c3ccc4c(c3)OCO4)nc2n1C1CC1 [CBK064922] | 196.12 |
| COc1ccc2c(c1)C1(CC(=O)N(CC(=O)N(C)C)C1=O)C(=O)N2Cc1ccc2ccccc2n1 (centres unmarked) [CBK075923] | 114.728 |
| CN(C)C(c1ccc2c(c1)OCO2)c1nnnn1C1CCCCC1 (centres unmarked) [CBK020620] | 114.303 |
| O=[N+]([O-])c1ccc(O)c(/C=N/c2ccc3cc4ccc(/N=C/c5cc([N+](=O)[O-])ccc5O)cc4nc3c2)c1 [CBK261557] | 100 |
| c1cnn(C2CCCN(Cc3ccc(Oc4cnccn4)cc3)C2)c1 (centres unmarked) [CBK304043] | 103.755 |
| O=[N+]([O-])c1ccc2c(c1)C(N1CCOCC1)/C(=C/COc1ccc3ccccc3c1Br)O2 (centres unmarked) [CBK262738] | 94.6497 |
| COCCOC(=O)C1=C(C)N(c2ccc(C(=O)O)cc2)C(=O)NC1c1ccccc1Cl (centres unmarked) [CBK296986] | 151.508 |
| O=C1C2C=NNC2C(=O)N1c1ccccc1 (centres unmarked) [CBK022326] | 112.463 |

| SMILES | % of control remaining [%] |
| --- | --- |
| Cc1ccc(C)c(NC(=O)N2CCC3(CCc4nccc(C)c4C3=O)CC2)c1 [CBK059554] | 107.197 |
| CS(=O)(=O)c1ccc(NC(=S)N2CCN(c3ccc(F)cc3)CC2)cc1 [CBK300507] | 126.255 |
| COc1ccc(OCCNC(=O)c2cc(Br)cnc2N(C)C(C)=O)cc1 [CBK076467] | 103.317 |
| C=CCn1c(SCC(=O)Nc2ccc(C(=O)OC)cc2)nnc1-c1ccc(Br)cc1 [CBK101797] | 100.717 |
| CC(C)n1nccc1C(=O)N1CCCC(c2cc3cccnc3[nH]2)C1 (centres unmarked) [CBK284930] | 117.634 |
| CCN(CC)C(=O)CCn1c(-c2ccc(C)nc2)cc2cccnc21 [CBK282150] | 136.087 |
| COc1cccc(CN2C(=O)COc3ccc(C(=O)c4cccs4)cc32)c1 [CBK286412] | 137.295 |
| COc1ccc(Br)cc1C(=O)NCC1(c2ccccc2)CCOCC1 [CBK067051] | 103.052 |
| CC1(C)CC(=O)C=C(C(=O)NCc2cccs2)O1 [CBK153292] | 112.052 |
| O=C(c1cnn(C(=O)c2ccc3c(=O)n4c(nc3c2)CCC4)c1)c1ccccc1O [CBK295145] | 144.115 |
| N[C@H]1CC[C@H](N(CCc2ccccc2)C(=O)N[C@@H]2C[C@H]2c2ccccc2)CC1 [CBK000474C] | 113.96 |
| Cc1nn(C)cc1C(=O)O[C@H]1C[C@@H](c2ccc(F)cc2)N(C)C1=O [CBK283615] | 106.066 |
| O=C(Nc1ccc(S(=O)(=O)NCCc2ccccc2)cc1)c1ccc2c(c1)OCO2 [CBK265591] | 86.2775 |
| O=C(COc1ccccc1Cl)NC(=S)Nc1cccc(C(=O)O)c1 [CBK265662] | 128.872 |
| COc1ccc2[nH]cc(CC(=O)NCc3ccc(-c4csnn4)cc3)c2c1 [CBK149313] | 88.3574 |
| CC(=O)NCCc1c(C(=O)O)[nH]c2ccc(OCc3ccccc3)cc12 [CBK260945] | 100 |
| CCOC(=O)c1c(NC(=O)Cn2cnc([N+](=O)[O-])n2)sc2c1CCCC2 [CBK262583] | 100 |
| CC(C)NC(=O)C1(Cc2ccc(-c3ccccc3)cc2)CCN(C(=O)C2CCCC2)CC1 [CBK285751] | 114.357 |
| CC(C)CS(=O)(=O)Nc1ccc(F)cc1F [CBK020615] | 109.879 |
| c1ccc2c(c1)OCC(COc1cncc(N3CCNCC3)n1)O2 (centres unmarked) [CBK172357G] | 114.354 |
| Cc1nc2cc(C(=O)N3CCC(c4ccccc4)C3)ccc2n1C (centres unmarked) [CBK281841] | 155.876 |
| Cc1ccc(S(=O)(=O)c2ccc(C)c(S(N)(=O)=O)c2)cc1S(N)(=O)=O [CBK261664] | 123.718 |
| CN(C)CCCC(=O)Nc1cccc2[nH]ccc12 [CBK159660] | 120.9 |
| O=C(NC1CC2(CCCC2)Oc2ccccc21)C1CCOC1 (centres unmarked) [CBK283802] | 137.491 |
| COc1cc(C(=O)N2CCC3(CC2)NC(=O)c2cc(Br)ccc2O3)ccc1C [CBK149464] | 113.18 |
| C=CCNC(=O)N[C@H]1[C@H](O)[C@@H](N(CC)CC)[C@@H]2OC[C@H]1O2 [CBK288817] | 128.366 |

Laid out differently: entries from further up
SMILES	% of control remaining [%]
CN(CC(F)(F)F)C(=O)CCc1nc(-c2cccs2)no1 [CBK282215]	147.602
Cc1cc(OCC(=O)Nc2ccc(S(=O)(=O)Nc3onc(C)c3C)cc2)cc(C)c1Cl [CBK263491]	13.7602
CC(C)[C@@H](N)Cn1nnc2ccccc21 [CBK284323]	107.091
O=C(c1cc[nH]c1)N1CCC2(CCN(Cc3ccccc3)CC2)C1 [CBK136756]	115.711
O=C(O)CN1CCN(c2ncnc3sc4c(c23)CCCC4)CC1 [CBK286836]	120.857
Cc1nc2ccc(C(=O)N(C)CCN3CCCCC3)cc2s1 [CBK281919]	124.505
CS(=O)(=O)Nc1ccc2cc(-c3cccc(C(F)(F)F)c3)cnc2n1 [CBK085671]	116.333

In a second layout: two of the compounds above.
SMILES | % of control remaining [%]
c1ccc2c(c1)OCC(COc1cncc(N3CCNCC3)n1)O2 (centres unmarked) [CBK172357G] | 114.354
COc1cc(C(=O)N2CCC3(CC2)NC(=O)c2cc(Br)ccc2O3)ccc1C [CBK149464] | 113.18

Continuation:

| SMILES | % of control remaining [%] |
| --- | --- |
| CC(C)N(C)CC(=O)N(C)c1nc2c(s1)CC(c1ccccc1)CC2 (centres unmarked) [CBK305535] | 115.352 |
| COC(=O)CCc1ccc(S(=O)(=O)N2CCCN(Cc3cc(F)c(F)c(F)c3)CC2)cc1 [CBK062998] | 118.036 |
| Cc1c(F)cccc1CN(CC(C)(C)CN)C(=O)Nc1ccc(C(F)(F)F)cc1 [CBK002417C] | 96.6047 |
| O=C(CN1C(=O)N2CCCN=C2c2ccccc21)N1CCCCC1 [CBK284395] | 132.193 |
| CCOC(=O)C(C)NC(=O)c1cc2ccc(F)cc2[nH]1 (centres unmarked) [CBK283214] | 90.6769 |
| Clc1cnc2nc(NCC3CCCCC3)sc2c1 [CBK067087] | 134.945 |
| O=C(CN1CCOCC1)NCCNc1c(Cl)c(Cl)c(Cl)c(Cl)c1Cl [CBK266851] | 130.791 |
| Cc1cc(=O)oc2cc(NC(=S)NNC(=O)c3ccc(Cl)s3)ccc12 [CBK266828] | 148.333 |
| Cc1cc(C)nc(NC(=O)OCCN2CCN(C)CC2)c1 [CBK138235] | 108.675 |
| CCOc1cc(/C=C2\S/C(=N/c3ccc(S(N)(=O)=O)cc3)NC2=O)c(Br)cc1O [CBK265622] | 131.104 |
| CC(NC(=O)c1cn(C)c(=O)c2ccccc12)c1ccccn1 (centres unmarked) [CBK281886] | 109.448 |
| CC1CN(S(=O)(=O)c2ccc(NC(=O)C3CC(=O)Nc4cc(F)ccc43)cc2)CC(C)O1 (centres unmarked) [CBK297933] | 153.382 |
| Cc1cccc(C)c1OCC(=O)Nc1ccc(S(=O)(=O)N2CCOCC2)cc1 [CBK266967] | 121.409 |
| N#Cc1ccccc1CSc1nc2ccc(NC(=O)c3ccc([N+](=O)[O-])cc3)cc2s1 [CBK265868] | 176.738 |
| N=C(N)SCCCCCSC(=N)N [CBK278314B] | 109.731 |
| COc1ccc(CC(=O)NC(CCSC)c2nnc3ccccn23)cc1 (centres unmarked) [CBK306077] | 165.244 |
| COc1ccc(CNC(=O)[C@H]2C=CCN2C(=O)c2ccco2)cc1 [CBK284321] | 152.791 |
| Cn1c(=O)n(CC(=O)N2CCC(C(=O)NC(c3ccccc3)c3ccccn3)CC2)c2ccccc21 (centres unmarked) [CBK060494] | 123.575 |
| Fc1ccccc1-c1cn2ccnc2c(N2CCOCC2)n1 [CBK036584] | 133.495 |
| COc1ccc(/C=N/NC(=O)CSc2nnc(C)n2-c2ccccc2)cc1 [CBK262812] | 103.687 |
| CN1CCN(C(=O)c2ccc(-c3ccc4c(c3)OCO4)nc2NCc2cccnc2)CC1 [CBK076110] | 102.637 |
| O=C(CCCN1C(=O)c2cccc3cccc(c23)C1=O)NCc1cccnc1 [CBK262190] | 100 |
| COc1ccccc1C(C)N(C)CCC(=O)Nc1cc(C)on1 (centres unmarked) [CBK305098] | 113.81 |
| COC(=O)Nc1nc2cc3cn[nH]c3cc2[nH]1 [CBK016129] | 101.604 |
| CC1CCCCN1C(=O)c1cccc(Cn2cc(Br)c([N+](=O)[O-])n2)c1 (centres unmarked) [CBK058788] | 80.2992 |
